The values that follow come from US20240240191.

The target in one series is alpha-synuclein oligomer (UniProt P37840). The experiment in a line: binding assay. The following applies: CITED Tsukakoshi et al.; label: 32P; single-stranded DNA.
For another series, the target named is amyloid-beta 40 oligomer (UniProt P05067). The series is described as follows: binding assay. Conditions: CITED Tsukakoshi et al.; label: 32P; single-stranded DNA.
Series [1] has as its target alpha-synuclein fibril, R-type conformer (ribbons) (UniProt P37840). The experiment in a line: FP filter. The following applies: purified recombinant protein, protein details: R-type (ribbon) fibril polymorph.
In series [2] the target is alpha-synuclein fibril, F-type conformer (fibrils) (UniProt P37840). The experiment in a line: FP filter. Conditions: purified recombinant protein; protein details: F-type (cylindrical) fibril polymorph; label: 32P; single-stranded DNA.
A further series concerns Tau 381. The experiment in a line: binding assay. Conditions: CITED Lisi et al. 2018; +/-6; label: 32P; single-stranded DNA.
The next series has as its system Tau 441. The series is described as follows: binding assay. Conditions: CITED Lisi et al. 2018; +/-3; label: 32P; single-stranded DNA.
In the next series the test system is Tau 352. The experiment in a line: binding assay. Conditions: CITED Lisi et al. 2018; +/-6; label: 32P; single-stranded DNA.
The test system of the next series is Tau 383. The series is described as follows: binding assay. Conditions: CITED Lisi et al. 2018; +/-4; label: 32P; single-stranded DNA.
In series [3] the target is alpha-synuclein fibril, 65 conformer (UniProt P37840). The experiment in a line: FP filter. The following applies: 2'-F on all pyrimidines, purified recombinant protein, protein details: fibril polymorph 65 (text also prints 61).
The target in series [4] is alpha-synuclein fibril, 91 conformer (UniProt P37840). The experiment in a line: FP filter. The following applies: 2'-F on all pyrimidines, purified recombinant protein, protein details: fibril polymorph 91.
Series [5] deals with alpha-synuclein monomer (UniProt P37840). The series is described as follows: FP filter. The following applies: 2'-F on all pyrimidines; purified recombinant protein; label: 32P SpG-LNA oligo hybridized to 3' G sequence.
The target is the same in series [6]. The experiment in a line: binding assay. Conditions: 2'-F on all pyrimidines; Sp6 exclusion column; purified recombinant protein; label: 32P SpG-LNA oligo hybridized to 3' G sequence; counted as no binding.
[7] abbreviates: label: 32P, single-stranded DNA.
[8] abbreviates: label: 32P oligo hybridized to 3' G sequence.
Setting [9] is: 2'-F on all pyrimidines, label: 32P oligo hybridized to 3' G sequence.
The mark [10] stands for this setting: label: 32P SpG-LNA oligo hybridized to 3' G sequence.
Where [11] appears, read: 2'-F on all pyrimidines, label: 32P SpG-LNA oligo hybridized to 3' G sequence.

For part of these data: A negative result means that nothing was seen under these conditions. For part of these data: A weaker result is weaker than the reference pair of the same experiment. For part of these data: Construct, isoform or probe ends are uncertain for at least one entry. For part of these data: Whether high values mean tight binding is not given here for every scale.

As a reminder, the Kd is the constant that tells how readily two partners part at equilibrium. Turning to “ATACTGCCATTCATTTCATTTGCCTGTGGTGTTGGGGCGGGTGCGTTTAGATATCAGCATGTGTCA [T-SO508]”, the Kd was found to be 0.068 µM in the series with alpha-synuclein oligomer and 0.025 µM in the series with amyloid-beta 40 oligomer.
Consider “ATAGTCCCATCATTCATTGTATGGTACGGCGCGGTGGCGGGTGCGTGGAGATATTAGCAAGTGTCA [M5-15]”, for which the binding result in [1] (setting [7]) and in series [2] was “no binding” throughout.
As to “ATCGAGTGGACGAGTGCCTCCGGTACGAGCTGTCTGATGGGTTTGCGCGCAGGATCCA [F5R2]”, the binding result in series [1] (setting [7]) and in series [2] was “no binding” each time.
Consider “ATCGAGTGTGTACGGGGTCCGGTAGGGTGGCGAGGTCTTCCTGTCGTAGCAGGATCCA [F5R1]”, for which the Kd in series [1] (setting [7]) turned out to be 0.0324 µM; in [2], 0.0035 µM.
For the sequence “GCCTGTTGTGAGCCTCCTGTCGAACCTTTGGGGTGGCTTGACGAAGAAAGTAGTTGAGCGTTTATTCTTGTCTCCC [Tau 3146]”, the Kd in the series with Tau 381 turned out to be 0.116 µM; in the series on Tau 441, 0.013 µM; with Tau 352, 0.084 µM; in the series with Tau 383 it was 0.049 µM.
Regarding “GGGAGAGUAUCCGUUGAGGCUGACAACGCGUUUACCUCACACCACGUCAUCCGUUGCCAGAUCGGAAGAGCGUCGUGUAGGGCAUUGCCCCAGCGUGACUGCCUA [N3-G]”, the binding result in series [3] (setting [8]), in series [1] (setting [9]) and in series [4] (setting [8]) was “binds more weakly” each time.
“GGGAGAGUAUCCGUUGAGGCUGAUCCGACCAUGCUUCAACUUAUACCUCGGGGACUGUAGAUCGGAAGAGCGUCGUGUAGGGCAUUGCCCCAGCGUGACUGCCUA [N124-G]”: the binding result with alpha-synuclein monomer [5] is given as “no binding”; in [3] (setting [10]) it was “binds more weakly”; in [1] (setting [11]), “no binding”; in series [4] (setting [10]), “binds more weakly”.
With “GGGAGAGUAUCCGUUGAGGCUGAUCGAUCCACGUCCGACAACGCGUUUACUCGCCAUCAGAUCGGAAGAGCGUCGUGUAGGGCAUUGCCCCAGCGUGACUGCCUA [N30-G]”, in the series with alpha-synuclein monomer [6], the binding signal (% eluted in SDS fraction) is 1.1. In addition, the binding result with alpha-synuclein monomer [5] is recorded as “no binding”; in series [3] (setting [10]) it was “binds more weakly”; in series [1] (setting [11]) it was “no binding”; in series [4] (setting [10]) it was “binds more weakly”.
Consider “GGGAGAGUAUCCGUUGGAGGCAUAGCAGCACACGACCAGUGUGCCCCACACCCAGUGGUGGUCUGUGGUGUGCAGAUCGGAAGAGCGUCGUGUAGGGCAUUGCCCCAGCGUGACUGCCUA [4F01-G]”, for which the binding result in [3] (setting [8]), in [1] (setting [9]) and in series [4] (setting [8]) was “binds more weakly” each time.
Take “GGGAGAGUAUCCGUUGGAGGCAUCACGGACACCUACCCGACGGCAUGUCAGGACACAUGUUGUGCUCCGUGUGAGAUCGGAAGAGCGUCGUGUAGGGCAUUGCCCCAGCGUGACUGCCUA [F124-G (PF_124)]”: the binding result in series [3] (setting [8]), in series [1] (setting [9]) and in [4] (setting [8]) was “binds more weakly” each time.
Turning to “GGGAGAGUAUCCGUUGGAGGCAUCGCACAGUGUACACCUACACACAGCAUACCUGUUGGCAUCCCAGGUUGCCAGAUCGGAAGAGCGUCGUGUAGGGCAUUGCCCCAGCGUGACUGCCUA [P65-G (P65_10854)]”, the binding result in series [3] (setting [8]), in series [1] (setting [9]) and in series [4] (setting [8]) was “binds more weakly” each time.
As for “GGGAGAGUAUCCGUUGGAGGCAUGCAACAGACGCACCGUACACACAUCUUGGCCGUUGGCUGCCCGACCAGCCAGAUCGGAAGAGCGUCGUGUAGGGCAUUGCCCCAGCGUGACUGCCUA [4F03-G]”, the binding result in series [3] (setting [8]), in [1] (setting [9]) and in [4] (setting [8]) was “binds more weakly” throughout.
Regarding “GGGAGAGUAUCCGUUGGAGGCAUGCCGCAGGCUACACCACAGCUUCCCCUUCAGCGUGUUGUGGAUACUCGGCAGAUCGGAAGAGCGUCGUGUAGGGCAUUGCCCCAGCGUGACUGCCUA [4F05-G]”, the binding result in series [3] (setting [8]), in [1] (setting [9]) and in [4] (setting [8]) was “binds more weakly” each time.
Turning to “GGGAGAGUAUCCGUUGGAGGCAUGCUGGCAGCACGCACCGCUGACCGCUGGCUGCACUAUGCGUGUGGAGUGCAGAUCGGAAGAGCGUCGUGUAGGGCAUUGCCCCAGCGUGACUGCCUA [4F02-G]”, the binding result in [3] (setting [8]), in series [1] (setting [9]) and in series [4] (setting [8]) was “binds more weakly” throughout.
